For at least one entry, the source does not settle the construct or the ends of the probe. For some of these results: Weaker means in comparison with the reference protein, sequence or condition of that experiment. For some of these results: At least one verdict rests on a figure or table, not on a statement of the authors.
Columns and labels:
[1] = target: hSSB1 (Homo sapiens) (UniProt Q9BQ15); assay: competition EMSA; conditions: substrate pre-coated with RPA (10 or 30 nM); EMSA: 25 mM Tris-HCl pH 7.5, 1 mM DTT, 5 mM MgCl2, 100 mM NaCl, 20 min at 37 C; 10 nM substrate; protein 22-167 nM (RPA 5-40 nM); 7.5% native PAGE, 0.5x TBE, 4 C; recombinant protein; protein details: His6 (2BT); label: 5' Cy3 on strand 1
[2] = target: hSSB1 Y74A (Homo sapiens) (UniProt Q9BQ15); assay: EMSA; conditions: EMSA: 25 mM Tris-HCl pH 7.5, 1 mM DTT, 5 mM MgCl2, 100 mM NaCl, 20 min at 37 C, 10 nM substrate, protein 22-167 nM (RPA 5-40 nM), 7.5% native PAGE, 0.5x TBE, 4 C, recombinant protein
[3] = tested on: RPA; assay: EMSA; conditions: EMSA: 25 mM Tris-HCl pH 7.5, 1 mM DTT, 5 mM MgCl2, 100 mM NaCl, 20 min at 37 C; 10 nM substrate; protein 22-167 nM (RPA 5-40 nM); 7.5% native PAGE, 0.5x TBE, 4 C; recombinant protein; label: 5' Cy3 on strand 1
[4] = tested on: hSSB1 + INTS3 + c9orf80; assay: competition EMSA; conditions: substrate pre-coated with RPA (10 or 30 nM); EMSA: 25 mM Tris-HCl pH 7.5, 1 mM DTT, 5 mM MgCl2, 100 mM NaCl, 20 min at 37 C; 10 nM substrate; protein 22-167 nM (RPA 5-40 nM); 7.5% native PAGE, 0.5x TBE, 4 C; recombinant protein; protein details: His6 (2BT),His6-TEV (438B),His6-TEV (438B); label: 5' Cy3; single-stranded DNA
[5] = target: hSSB1 Y85A (Homo sapiens) (UniProt Q9BQ15); assay: EMSA; conditions: EMSA: 25 mM Tris-HCl pH 7.5, 1 mM DTT, 5 mM MgCl2, 100 mM NaCl, 20 min at 37 C; 10 nM substrate; protein 22-167 nM (RPA 5-40 nM); 7.5% native PAGE, 0.5x TBE, 4 C; recombinant protein; label: 5' Cy3; single-stranded DNA
[6] = tested on: hSSB1 + INTS3 + c9orf80; assay: EMSA; conditions: EMSA: 25 mM Tris-HCl pH 7.5, 1 mM DTT, 5 mM MgCl2, 100 mM NaCl, 20 min at 37 C; 10 nM substrate; protein 22-167 nM (RPA 5-40 nM); 7.5% native PAGE, 0.5x TBE, 4 C; recombinant protein; protein details: His6 (2BT),His6-TEV (438B),His6-TEV (438B); label: 5' Cy3; single-stranded DNA

Amino acid sequences for entries named in this document (tags omitted).
UniProt Q9BQ15, whole entry Y74A: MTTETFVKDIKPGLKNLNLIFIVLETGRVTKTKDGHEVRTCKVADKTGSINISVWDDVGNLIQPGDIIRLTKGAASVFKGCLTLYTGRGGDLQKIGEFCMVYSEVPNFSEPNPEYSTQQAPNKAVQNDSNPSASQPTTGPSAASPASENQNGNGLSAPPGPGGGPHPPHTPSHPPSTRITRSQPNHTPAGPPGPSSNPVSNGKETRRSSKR
UniProt Q9BQ15, whole entry Y85A: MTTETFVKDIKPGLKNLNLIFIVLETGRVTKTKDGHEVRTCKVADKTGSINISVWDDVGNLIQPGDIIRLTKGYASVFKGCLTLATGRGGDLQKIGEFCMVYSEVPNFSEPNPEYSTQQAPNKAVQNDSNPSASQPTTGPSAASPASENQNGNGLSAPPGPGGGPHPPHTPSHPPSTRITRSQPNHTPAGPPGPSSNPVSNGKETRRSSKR

Sequence | binding result [1] | binding result ([2]; label: 5' Cy3 on strand 1) | binding result [3] | binding result [4] | binding result ([2]; label: 5' Cy3, single-stranded DNA) | binding result [5] | binding result [6]
GACGCTGCCGAATTCTACCAGTGCCTTGCTAGGACATCTTTGCCCACCTGCAGGTTCACCC / GGGTGAACCTGCAGGTGGGCGGCTGCTCATCGTAGGTTAGTTGGTAGAATTCGGCAGCGTC / AAAGAUGUCCUAGCAAGGCAC [R-loop] | binds more weakly | binds more weakly | binds | – | – | – | –
GACGCTGCCGAATTCTACCAGTGCCTTGCTAGGACATCTTTGCCCACCTGCAGGTTCACCC [61-mer ssDNA] | – | – | – | binds more weakly | binds more weakly | binds more weakly | binds

Reference: publication PMC7617797
